Experimental data as given in CN105461808A.
No constants are given. Whether binding was seen depends on the method and setting. Some entries that bind do so weakly or less than the wild type. One block for each binder: values may come before it.

By UniProt entry, the sequences of proteins in these tests, tags left out. Residues count along the entry.
UniProt Q9NZQ7, residues 19-290: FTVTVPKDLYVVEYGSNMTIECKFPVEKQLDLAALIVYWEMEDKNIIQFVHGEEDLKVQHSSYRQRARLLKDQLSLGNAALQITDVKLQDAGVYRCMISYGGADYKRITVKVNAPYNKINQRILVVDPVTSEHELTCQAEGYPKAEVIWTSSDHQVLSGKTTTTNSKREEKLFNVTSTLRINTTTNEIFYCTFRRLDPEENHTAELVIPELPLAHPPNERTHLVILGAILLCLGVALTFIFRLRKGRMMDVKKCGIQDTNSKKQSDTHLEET

Experiments:
[1] = molecular target: HCC827细胞表面PDL-1 (UniProt Q9NZQ7); experiment: flow cytometry on cells
[2] = molecular target: HCC827细胞表面PDL-1 (UniProt Q9NZQ7); experiment: flow cytometry on cells (legend of Fig. 8)

binding [1]: binds
binding [2]: binds
B1: H017-6F11.3.2 (antibody, mouse IgG2b, V domains shown)
VH: EVQLQQSGAELVKPGASVKLSCTASGFNIKDTYIHWMRQRPEQGLEWIGRIDPANDNTKYDPKFQGKATVTADTSSNTAYLQLSSLTSEDTAVYYCARGLRLRYFDVWGAGTTVTVSS
VL: DIQMTQTPSSLSASLGGKVTITCKASQDIHKYIAWYQHKPGKGPRLLIHYTSTLQPGIPSRFSGSGSGRDFSFSISNLEPEDFETYYCLQYENLLPTFGGGTKLEIK

binding [1]: binds
binding [2]: binds
B2: H018-17B5.5.1 (antibody, mouse IgG1, V domains shown)
VH: QVQLQQSGAELMKPGASVKISCKATGYKFSSYWIEWVKQRPGHGLEWIGEILPGSGNPNYDEKFKGKATFTADTSSNTAYMQLSSLTSEDSAVYYCARERWMDSWGQGTSVTVSS
VL: DIQMTQTASSLSASLGDRVTISCSASQGIFNYLNWYQQKPDGTVTVLIYYTSRLHSGVPSRFSGSGSGTDYSLTISNLEPEDIATYYCQQYSKLPYTFGGGTKLEIKR

binding [1]: binds
binding [2]: binds
B3: H017-9C10.2.8 (antibody, mouse IgG1, V domains shown)
VH: QVQLKQSGFGLVLPSQSLSITCTVSGFSLTSYGVHWVRQSPGKGLEWLGLIWSGGGTDYNAAFISRLSISKDNSKSQVFFKINSLQANDTAIYYCARQLGLRAMDYWGQGTSVTVSS
VL: DILLTQSPAILSVSPGERVSFSCRASQSIGTTIHWYQQRTNGSPRLLIKYASESVSGIPSRFSGSGSGTDFTLSINSVESEDIADYYCQQSNSWPLTFGAGTKLEIK
